Test results reported in publication PMC6828733.
Results are given in words; binding and its absence hold for the method and conditions named. In cells and extracts the contact can be indirect. Binding calls can cover weak binding; strength is not graded here. For some of these results: Tags and fused reporters may be left off the sequences shown. Blank lines part the entries; values can stand above or below the molecule they belong to.

The chains behind the UniProt entries cited, without tags or fusion partners. Where a name states a change or a piece, a line headed by the entry shows the natural chain unless it says otherwise.
UniProt Q12772: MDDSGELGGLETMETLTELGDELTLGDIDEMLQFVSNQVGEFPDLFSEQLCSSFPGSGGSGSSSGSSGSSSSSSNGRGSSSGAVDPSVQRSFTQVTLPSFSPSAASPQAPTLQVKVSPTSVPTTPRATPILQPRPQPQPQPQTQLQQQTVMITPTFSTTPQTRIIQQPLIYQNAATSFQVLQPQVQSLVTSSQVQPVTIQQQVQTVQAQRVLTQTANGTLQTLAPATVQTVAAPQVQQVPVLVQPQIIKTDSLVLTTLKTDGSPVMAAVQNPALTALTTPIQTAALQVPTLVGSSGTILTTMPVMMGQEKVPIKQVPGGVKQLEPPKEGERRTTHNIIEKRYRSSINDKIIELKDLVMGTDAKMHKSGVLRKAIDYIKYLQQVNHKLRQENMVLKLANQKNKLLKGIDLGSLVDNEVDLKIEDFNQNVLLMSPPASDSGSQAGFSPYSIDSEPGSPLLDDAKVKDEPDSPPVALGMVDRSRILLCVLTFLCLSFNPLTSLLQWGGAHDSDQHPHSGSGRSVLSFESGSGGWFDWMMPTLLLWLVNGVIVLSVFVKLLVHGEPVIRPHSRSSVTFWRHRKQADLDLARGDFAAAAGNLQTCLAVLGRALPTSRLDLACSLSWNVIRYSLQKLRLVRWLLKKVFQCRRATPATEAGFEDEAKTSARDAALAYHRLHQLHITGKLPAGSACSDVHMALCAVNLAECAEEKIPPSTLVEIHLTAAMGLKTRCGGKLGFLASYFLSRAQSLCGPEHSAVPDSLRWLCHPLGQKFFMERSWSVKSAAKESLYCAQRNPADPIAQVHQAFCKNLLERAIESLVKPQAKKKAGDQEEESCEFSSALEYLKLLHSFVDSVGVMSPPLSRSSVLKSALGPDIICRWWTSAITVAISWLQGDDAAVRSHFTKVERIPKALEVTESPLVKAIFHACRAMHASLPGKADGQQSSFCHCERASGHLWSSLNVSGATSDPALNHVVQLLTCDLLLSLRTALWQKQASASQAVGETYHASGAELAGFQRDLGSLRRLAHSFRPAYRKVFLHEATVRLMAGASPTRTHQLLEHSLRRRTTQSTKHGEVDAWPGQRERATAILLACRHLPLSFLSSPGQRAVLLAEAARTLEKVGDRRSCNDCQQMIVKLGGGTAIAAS

Assays:
[1] = molecular target: T1, ASPP2 (endogenous, HCC-LM3 cells) (human (endogenous in HCC-LM3)) (UniProt Q13625); assay: co-IP; endogenous proteins, nuclear proteins of HCC-LM3 isolated with the Nuclear Complex Co-IP Kit (Active Motif), diluted in lysis buffer; IP with anti-ASPP2 overnight, protein A/G agarose, Western blot
T1 sequence: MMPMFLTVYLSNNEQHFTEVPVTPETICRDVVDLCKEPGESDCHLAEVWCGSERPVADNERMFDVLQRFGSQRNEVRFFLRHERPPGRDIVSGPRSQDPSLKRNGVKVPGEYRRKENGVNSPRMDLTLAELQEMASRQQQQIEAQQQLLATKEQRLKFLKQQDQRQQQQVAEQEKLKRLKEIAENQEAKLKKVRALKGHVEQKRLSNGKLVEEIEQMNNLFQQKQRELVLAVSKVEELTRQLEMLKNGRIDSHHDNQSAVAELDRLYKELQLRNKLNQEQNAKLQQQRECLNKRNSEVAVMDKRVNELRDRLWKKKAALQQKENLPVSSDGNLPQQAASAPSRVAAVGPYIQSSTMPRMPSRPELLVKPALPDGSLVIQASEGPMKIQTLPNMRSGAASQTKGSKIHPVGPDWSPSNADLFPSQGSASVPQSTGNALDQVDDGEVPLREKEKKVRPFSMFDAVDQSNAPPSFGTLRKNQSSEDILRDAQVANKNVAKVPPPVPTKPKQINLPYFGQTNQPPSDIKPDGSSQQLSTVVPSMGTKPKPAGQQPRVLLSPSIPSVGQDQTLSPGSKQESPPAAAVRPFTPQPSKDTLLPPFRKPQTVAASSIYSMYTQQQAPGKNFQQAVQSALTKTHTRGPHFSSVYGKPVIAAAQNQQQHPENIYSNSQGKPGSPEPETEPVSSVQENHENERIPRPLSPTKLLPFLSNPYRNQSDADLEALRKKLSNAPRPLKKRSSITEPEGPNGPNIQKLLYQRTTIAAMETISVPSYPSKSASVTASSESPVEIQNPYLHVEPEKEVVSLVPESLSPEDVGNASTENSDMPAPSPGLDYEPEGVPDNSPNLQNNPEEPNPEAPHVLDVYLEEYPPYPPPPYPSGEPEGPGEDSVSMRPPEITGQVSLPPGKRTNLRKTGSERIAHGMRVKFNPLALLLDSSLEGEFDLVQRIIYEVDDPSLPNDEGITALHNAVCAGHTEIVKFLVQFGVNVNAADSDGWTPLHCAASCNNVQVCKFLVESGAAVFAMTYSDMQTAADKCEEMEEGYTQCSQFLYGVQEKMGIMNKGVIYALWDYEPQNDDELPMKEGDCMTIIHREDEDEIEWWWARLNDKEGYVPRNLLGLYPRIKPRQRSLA

[2] = molecular target: T1, ASPP2 (endogenous, HCC-LM3 cells) (human (endogenous in HCC-LM3)); assay: co-IP; endogenous proteins, HCC-LM3 total cell lysate (50 mM Tris HCl, 150 mM NaCl, 0.1% SDS, 1% NP-40, 0.5% sodium deoxycholate); IP with anti-ASPP2 overnight, protein A/G agarose, Western blot; also cells with ASPP2 depleted (interaction greatly reduced)
[3] = molecular target: HA-tagged SREBP-2; assay: co-IP; V5-tagged ASPP2 and HA-SREBP-2 co-transfected into HEK293T, total cell lysate; IP with anti-V5 or with anti-HA antibody, protein A/G agarose, Western blot
[4] = molecular target: HA-tagged SREBP-2; assay: co-IP; V5-tagged ASPP2 and HA-SREBP-2 co-transfected into HEK293T, nuclear proteins isolated with the Nuclear Complex Co-IP Kit (Active Motif); IP with anti-V5 or with anti-HA antibody, protein A/G agarose, Western blot

binding [1]: binds
binding [2]: binds
Molecule: SREBP-2 (sterol regulated element binding protein-2; endogenous, HCC-LM3 cells) (from UniProt Q12772)

binding [3]: binds
binding [4]: binds
B1: V5-tagged ASPP2 (protein, UniProt Q13625 1-1128)
chain: T1 sequence
